Measurements reported in publication PMC4063770.
Results are given in words; binding and its absence hold for the method and conditions named. Binding seen in cells or lysates may run through a third protein. Some entries that bind do so weakly or less than the wild type.

Chains of the proteins cited; added tags and fusions are not shown.
UniProt O70218: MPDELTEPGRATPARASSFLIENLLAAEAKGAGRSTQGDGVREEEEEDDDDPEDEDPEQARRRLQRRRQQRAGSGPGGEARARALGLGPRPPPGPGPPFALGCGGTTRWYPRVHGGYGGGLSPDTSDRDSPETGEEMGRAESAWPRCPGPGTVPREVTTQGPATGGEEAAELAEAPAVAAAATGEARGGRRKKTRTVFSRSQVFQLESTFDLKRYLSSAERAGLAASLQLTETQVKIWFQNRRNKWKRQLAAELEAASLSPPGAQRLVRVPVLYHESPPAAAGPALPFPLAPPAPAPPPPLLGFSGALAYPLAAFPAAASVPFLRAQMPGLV

Columns and labels:
[1] = biological target: HMX1 fused to Renilla luciferase (RLUC-HMX1) and HMX1 fused to GFP^2 (GFP^2-HMX1) (UniProt O70218); test: co-IP; HEK 293T lysate, 200 ug protein; IP with anti-Renilla luciferase antibody overnight at 4 C, protein G plus agarose; Western blot with anti-GFP antibody
[2] = biological target: HMX1 fused to Renilla luciferase (RLUC-HMX1) and HMX1 fused to GFP^2 (GFP^2-HMX1) (UniProt O70218); test: FRET or BRET; BRET^2 in HEK 293T cells co-transfected with the RLUC fusion (donor) and increasing amounts of the GFP^2 fusion (acceptor); 200'000 cells in DPBS per well, coelenterazine 400A (DeepBlueC) 5 uM, 410 nm and 515 nm filters

In the case of “HMX1 fused to Renilla luciferase (RLUC-HMX1) and HMX1 fused to GFP^2 (GFP^2-HMX1) (from UniProt O70218 1-332)”, the binding [1] is reported as “binds” and the binding [2] is reported as “binds”.
